Values of other authors in patent US11730792B2, “Coversin (OmCI) for the treatment of autoimmune blistering diseases: bullous pemphigoid (BP) and epidermolysis bullosa acquisita (EBA)” (VOLUTION IMMUNO PHARMACEUTICALS SA, priority 2017, dated 2023).
For at least one compound, name, drawing or mass did not settle the structure.

System: antibody transfer model of EBA
Settings: 20 mg/kg/day; control mice 7.5±0.1%; ref [45]; cited from earlier work

For `C[C@H]1C[C@@H]2[C@H]([C@@H](O)C[C@@]3(C)[C@H]2CC[C@]3(O)C(=O)CO)[C@@]2(C)C=CC(=O)C=C12` [Methylprednisolone], the “body surface area affected by skin lesions at the end of the experiment” value is given as 4.7±0.4%.
